# Test results: PubChem BioAssay AID2685 (National Center for Advancing Translational Sciences (NCATS), 2010)
# The list shows a part of the results. The main result of the screen is listed elsewhere. These columns were measured beside it and carry no call. Most of these compounds were active or inconclusive in the main read-out, so they are no random draw. Words in brackets tell the shape of the fitted curve; partial curves, single points and poor fits give uncertain potencies.
# Assay: qHTS Assay for Lipid Storage Modulators in Drosophila S3 Cells;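 as to cell number change: cells counted by Cell Tracker Red CMTPX staining in the red channel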
# Settings: BODIPY lipid droplet fluorescence, 18-24 h; for cell number change: measured here: cell count max response, cells fed with added oleic acid
# Method in brief: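 Laser-scanning cytometry quantifies lipid droplet accumulation (500–530 nm total intensity; droplet/cell object ratio) in oleic acid-fed (400 uM added) Drosophila S3 cells treated with a concentration series. 20 uM Triacsin C defined 100% inhibition.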
# [1] = measured here: lipid fluorescence (Fed channel) AC50, cells fed with added oleic acid
# [2] = measured here: cell number channel AC50, cells fed with added oleic acid
Compound,cell number change,AC50 [1],AC50 [2]
Cc1nnc(NC(=O)C2CCN(S(=O)(=O)c3cc([N+](=O)[O-])ccc3Cl)CC2)o1,-3.81%,"0.00517 µM [rising, full curve, poor fit]",–
COc1ccc(CCN2CC(C(=O)NCc3ccco3)CC2=O)cc1OC (stereo not drawn),1.57%,"4.61 µM [falling, partial curve, poor fit]",–
O=[N+]([O-])c1ccccc1/C=N\N1CCN(Cc2ccccc2Cl)CC1,-9.84%,–,–
NC1=NC2(CCC(c3ccccc3)CC2)n2c(nc3ccccc32)N1 (stereo not drawn),39%,"0.259 µM [rising, full curve, poor fit]","0.411 µM [rising, full curve, poor fit]"
CC(Sc1nnc(Cc2cccs2)n1C1CCCCC1)C(=O)NCc1ccco1 (stereo not drawn),-3.44%,"6.51 µM [rising, single point]",–
COc1ccc(/C(C)=N/NC(=O)c2nnn(-c3nonc3N)c2-c2ccccc2)cc1,183%,–,"25.9 µM [rising, partial curve]"
O=C(c1ccc(-c2ccccc2Cl)o1)N1CCN(c2ccccc2O)CC1,-20.9%,–,–
COc1ccc(COc2ccsc2C(=O)Nc2ccc(Cl)cc2)cc1,1.56%,–,–
CC1CCC2(CC1)NC(=O)N(CC(=O)Nc1ccc3[nH]c(=O)[nH]c3c1)C2=O (stereo not drawn),-23.8%,"0.82 µM [falling, full curve]","0.82 µM [falling, full curve, poor fit]"
CCC(C)C(NC(=O)C1CCC(C)CC1)C(=O)NCc1ccccn1 (stereo not drawn),-23.4%,–,"4.11 µM [falling, partial curve, poor fit]"
COc1ccc(CCNC(=O)CSc2nnc(CNC(=O)c3cc(OC)c(OC)c(OC)c3)o2)cc1OC,5.38%,"0.58 µM [falling, single point]",–
O=C(Cn1cnnn1)Nc1cccc(S(=O)(=O)N2CCCCC2)c1,8.77%,–,–
COc1ccc(N2CCN(C(=S)Nc3ccc(F)cc3)CC2)cc1,6.57%,"20.6 µM [rising, single point]",–
O=C(CN(Cc1ccccc1)S(=O)(=O)c1ccccc1)N/N=C/c1ccc2c(c1)OCO2,14.8%,"0.731 µM [rising, full curve, poor fit]",–
O=C(CC1C(=O)NCCN1C(=O)c1ccc(Cl)cc1)Nc1ccc(F)cc1 (stereo not drawn),19.4%,"6.51 µM [rising, single point]",–
O=C(O)CSc1nnc(CNc2ccc(F)cc2)n1-c1ccccc1,-38.7%,"18.4 µM [falling, single point]","16.4 µM [falling, single point]"
CCOC(=O)c1sc(NC(=O)CSc2nc(-c3ccco3)cc(C(F)(F)F)n2)c(C#N)c1C,111%,"0.58 µM [rising, single point]","0.291 µM [rising, single point]"
O=C(NC1CCCC1)C(c1c(F)cccc1Cl)N(C(=O)c1csnn1)C1CC1 (stereo not drawn),–,"20.6 µM [falling, partial curve]",–
O=C(Nc1ncccn1)C1CCCCC1,–,"29.1 µM [rising, single point]",–
O=C(Nc1cc(Cl)cc(Cl)c1)c1cccnc1,1.09%,"0.103 µM [falling, full curve, poor fit]",–
CCCN1C(=O)/C(=N\OCC(=O)NC23CC4CC(CC(C4)C2)C3)c2ccccc21,-54.3%,"3.66 µM [falling, full curve]","7.31 µM [falling, partial curve]"

# In a second layout: entries from further up
Compound	cell number change	AC50 [1]	AC50 [2]
COc1ccc(N2CCN(C(=S)Nc3ccc(F)cc3)CC2)cc1	6.57%	20.6 µM [rising, single point]	–
O=C(CN(Cc1ccccc1)S(=O)(=O)c1ccccc1)N/N=C/c1ccc2c(c1)OCO2	14.8%	0.731 µM [rising, full curve, poor fit]	–
O=C(CC1C(=O)NCCN1C(=O)c1ccc(Cl)cc1)Nc1ccc(F)cc1 (stereo not drawn)	19.4%	6.51 µM [rising, single point]	–
O=C(O)CSc1nnc(CNc2ccc(F)cc2)n1-c1ccccc1	-38.7%	18.4 µM [falling, single point]	16.4 µM [falling, single point]

# More results follow.

Compound,cell number change,AC50 [1],AC50 [2]
Cc1ccc(O)c(NC(=O)c2cc(C)no2)c1,7.21%,–,–
CS(=O)(=O)c1ccc(Cl)c(NC(=O)COC(=O)CCCN2C(=O)c3cccc4cccc(c34)C2=O)c1,14.5%,–,–
CCOc1ccc(/C=N/NC(=O)c2nnn(-c3nonc3N)c2COc2ccc(F)cc2)cc1,-1.09%,"0.103 µM [rising, full curve, poor fit]",–
CCc1nc2ccc(C(=O)N3CCN(c4cccc(C)c4C)CC3)cc2nc1CC,38.5%,"29.1 µM [rising, single point]","11.6 µM [rising, partial curve]"
COCCn1c(=O)c2c(nc3n2CCCN3CCc2ccccc2)n(C)c1=O,-0.704%,–,–
Cc1cccc(C(C)C)c1NC(=O)c1cccnc1,18.6%,"14.6 µM [falling, partial curve]",–
O=[N+]([O-])c1c(NCCO)cc(Sc2nc3ccccc3s2)c2nonc12,-71.4%,"18.4 µM [falling, partial curve]","13 µM [falling, partial curve]"
CCOC(=O)c1cc(CC)sc1NC(=O)COc1ccc2c(C)cc(=O)oc2c1,-67.9%,"4.61 µM [rising, partial curve, poor fit]","29.1 µM [falling, single point]"
CCN(C(=O)/C=C/c1cc(OC)c(OC)c(OC)c1)C1CCCCC1,-2.19%,"0.651 µM [rising, full curve]",–
Cn1c(CO)cnc1S(=O)(=O)Cc1ccc(Cl)cc1,-42.7%,"4.11 µM [falling, full curve]","6.51 µM [falling, full curve]"
COc1ccccc1N1CCN(C(=O)c2sc3ncn(CC(=O)N4CCC(C)CC4)c(=O)c3c2C)CC1,3.23%,"29.1 µM [falling, single point]","0.259 µM [rising, full curve, poor fit]"
Cc1ccc(Cl)cc1NC(=O)COC(=O)C1CC1,12.1%,"6.51 µM [rising, single point]","2.59 µM [rising, single point]"
C=COCCNC(=O)Nc1ccc(Cl)cc1Cl,1.08%,–,–
COc1cc2nc(C3CCC3)n(NC(=O)COc3ccccc3)c(=O)c2cc1OC,-5.31%,–,–
C[C@H](NC(=O)c1ccc(Cl)cc1)C(=O)NNC(=O)c1cccs1,-11.2%,–,–
CCOc1ccc(C(C)NC(=O)C2CCC2)cc1 (stereo not drawn),-33.3%,–,"29.1 µM [falling, single point]"
Cc1ccccc1CSc1nc2n(n1)C(c1cccs1)C1=C(CCCC1=O)N2 (stereo not drawn),9.11%,"0.731 µM [rising, single point]","1.64 µM [rising, partial curve]"
CCN(C(=O)c1coc(=O)c(Br)c1)c1ccc2c(c1)OCO2,-13.4%,"0.146 µM [falling, full curve, poor fit]",–
O=S(=O)(c1ccc2c(c1)OCO2)N1CCN(c2nnnn2-c2ccccc2)CC1,-40.2%,–,–
COc1ccc(S(=O)(=O)N2CCOCC2)cc1NC(=O)COC(=O)C1CC2CCCC(C1)C2=O (stereo not drawn),-6.82%,"4.61 µM [falling, partial curve, poor fit]",–
O=C(CN1CCC(C(=O)c2ccc(Cl)cc2)CC1)Nc1ccc2c(c1)OCCO2,36.4%,–,"0.231 µM [rising, full curve, poor fit]"

Compound,cell number change,AC50 [1],AC50 [2]
O=C(NCCC1=CCCCC1)c1ccc(Br)o1,78.8%,"2.06 µM [falling, partial curve]","29.1 µM [rising, single point]"
COc1ccc(C(=O)N=c2nc3ccccn3s2)cc1,19%,–,–
C[C@H](Nc1ccc(C(F)(F)F)cc1[N+](=O)[O-])C(=O)O,-10.7%,"2.91 µM [falling, full curve, poor fit]",–
CN(C)CCCN(C(=O)c1cccs1)c1nc(-c2ccccc2)cs1,27.9%,"6.51 µM [rising, partial curve]",–
COc1ccc(-n2cnnc2SCc2csc(-c3ccccc3)n2)cc1,-14.5%,"0.651 µM [rising, full curve, poor fit]",–
COc1cc2nc(/C=C/c3cc(OC)c(OC)c(OC)c3)sc2cc1SC,-20.6%,–,–
CSCC[C@H](N)C(=O)NCC1CCC(C(=O)Nc2ccc3c(c2)OCO3)CC1 (stereo partly drawn),–,"29.1 µM [rising, single point]",–
COC(=O)c1cccc(NC(=O)CCSc2ccc(Cl)cc2)c1C,-1.99%,"2.91 µM [falling, single point]",–
COc1ccc(NC(=O)NC2(C(=O)N3CCN(C)CC3)CCCCC2)cc1,-5.13%,–,–
Cc1ccc(S(=O)(=O)C2(C(=O)NCc3ccccc3Cl)CC2)cc1,-22.7%,"2.31 µM [falling, full curve]",–
O=[N+]([O-])c1cccc(S(=O)(=O)N2CCN(S(=O)(=O)N3CCOCC3)CC2)c1,15%,"3.66 µM [rising, full curve]",–
COCCNC(=O)c1ccccc1N(Cc1ccccc1)S(=O)(=O)c1ccc(C)cc1,5.63%,–,–
CSc1nc(SCC(N)=O)c2c3c(sc2n1)CN(C)CC3,-6.9%,"0.411 µM [rising, partial curve, poor fit]",–
CN1C(=O)N(CC(=O)N2CCN(S(=O)(=O)Cc3ccccc3)CC2)C(=O)C12CCCCC2,-5.77%,"29.1 µM [rising, single point]",–
CCn1c(=S)[nH]c2cc(Cl)ccc21,32.5%,–,"4.11 µM [rising, partial curve]"
COc1ccccc1-n1c(CNC(=O)c2ccco2)nnc1SCC(=O)Nc1nccs1,–,"0.0731 µM [rising, full curve, poor fit]",–
Cc1cccc(C)c1NS(=O)(=O)c1ccc(F)cc1,–,"0.731 µM [falling, full curve, poor fit]",–
CCCn1c(SCc2ccc(C(=O)OC)o2)nc2ccccc2c1=O,–,"6.51 µM [rising, single point]",–
CC(OC(=O)c1cccc(-n2cnnn2)c1)C(=O)Nc1ccccc1F (stereo not drawn),–,–,"6.51 µM [rising, single point]"
